From PubChem BioAssay AID493014 (National Center for Advancing Translational Sciences (NCATS), 2011)
About 170 (0.05%) of roughly 340,000 compounds were called active. The shares of active, inactive and inconclusive entries below differ from those in the screen. The call rests on the fitted dose curve; in most records, active means well fitted inhibition curve with a large enough effect in the signal ratio, with a control signal flat (not every such curve was filed as active); inconclusive means small, poorly fitted or top-dose-only effect, or effect the other way, or a change in a side signal; inactive means flat fitted curve, though single readings scatter; the % refers to the signal ratio. Where the call is inconclusive, the potency comes from a doubtful curve fit.

experiment: qHTS Assay to Find Inhibitors of Chronic Active B-Cell Receptor Signaling; conditions: ABC-DLBCL IkBa-CBG/CBR reporter, luminescence ratio (green luciferase fused to IkBa over red control in TMD8 lymphoma cells), 4 h; activity change, negative = inhibition: at 46.1 µM (top of the series);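 on activity change, negative = inhibition: plate controls were basal doxycycline-induced cells for no effect and cells given 10 µM MG132 for full effect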
Method in brief: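 TMD8 ABC-DLBCL cells carrying doxycycline-inducible green luciferase fused to IkappaBalpha plus unfused red luciferase were exposed to compounds (up to 46 uM) for 4 hrs at 37C. Activity came from the overlap-corrected green/red luminescence ratio.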
Potency means the concentration at half of the fitted maximal effect.

SMILES | Potency | activity change, negative = inhibition
C/C(=N\Nc1nc2ccccc2[nH]1)c1ccc2c(c1)OCO2 | inconclusive: 17.8 µM [falling, partial curve] | 
CCN(CC)C(=O)OCc1c(-c2ccccc2)ncc2ccccc12 |  | inconclusive: 7.23%
COc1ccc(NC(=O)C(c2ccccc2)N2CCN(c3ccccn3)CC2)cc1Cl (configuration not stated) | inconclusive: 12.6 µM [falling, partial curve, poor fit] | 
O=C(Nc1cccc2ncccc12)c1ccc([N+](=O)[O-])o1 | inconclusive: 20 µM [falling, single point] | 
Cc1ccc(-c2cc(C(=O)NCCc3ccc(S(N)(=O)=O)cc3)c3ccccc3n2)cc1 |  | inactive
Cc1cc(O)ccc1Nc1nc(-c2cccnc2)cs1 | inconclusive: 22.4 µM [falling, single point] | 
COc1ccc(N(CC(=O)Nc2nc3ccc(C)cc3s2)S(=O)(=O)c2c(C)nn(C)c2C)cc1 | inconclusive: 0.461 µM [rising, full curve] | 
CC1=NNC(=O)C1CCC(=O)N/N=C/c1ccc(Cl)cc1 (configuration not stated) | inconclusive: 22.4 µM [falling, single point] | 
CCCCN1C(=O)C(=O)c2cc(Cl)ccc21 | inconclusive: 23.1 µM [falling, single point] | 
O=C(CSc1nnc(-c2cccs2)n1-c1ccccc1)N1CCN(C(=O)c2ccco2)CC1 |  | inconclusive: -0.679%
COc1cc(C#Cc2ccc3cc(C(C)(C)O)oc(=O)c3c2)cc(OC)c1 | inconclusive: 29.1 µM [falling, single point] | 
COc1ccc(OC)c(/C=C/C(=O)N(C)CC(=O)Nc2ccc(N3CCOCC3)cc2)c1 |  | inconclusive: -1.87%
Cc1c(O)ccc(/C(Cc2ccc3ccccc3n2)=N\O)c1O |  | inconclusive: 3.52%
CCC(C)[C@H](NC(=O)Nc1ccc2c(c1)OCCO2)C(=O)OC (some centres not stated) |  | inconclusive: 8.25%
Cc1ccc(CCN2CCN=C2Nc2ccccc2)cc1 |  | inactive
COc1ccc([C@@H]2CC(=O)c3c(O)cc(O[C@@H]4O[C@H](CO[C@@H]5O[C@@H](C)[C@H](O)[C@@H](O)[C@H]5O)[C@@H](O)[C@H](O)[C@H]4O)cc3O2)cc1O |  | inconclusive: 14%
CC1CN(c2ccc([N+](=O)[O-])c(NCCOc3ccccc3)c2)CCN1 (configuration not stated) | inconclusive: 35.5 µM [falling, single point] | 
Cc1cc(/C=C2\SC(=O)N(CC(=O)Nc3ccccc3F)C2=O)c(C)n1C | inconclusive: 0.631 µM [falling, full curve] | 
COc1cc(C)c(Br)cc1S(=O)(=O)N1CCOCC1 |  | inconclusive: -1.22%
O=C(NC1CCCCCCC1)NC1CCCCC1 |  | inconclusive: 2.66%
BrC(=C\c1ccccc1)/C=N/N1CCN(c2ccccn2)CC1 |  | inconclusive: -20.2%
O=C(C(=O)N1CCc2ccccc2C1)c1c[nH]c2ccccc12 |  | inconclusive: -11%
CC(=O)N(CCC(Cc1ccccc1)c1ccco1)Cc1ccco1 (configuration not stated) |  | inconclusive: 5.04%
Clc1cccc(N2CCN(Cc3nnc(-c4ccccc4)o3)CC2)c1 | inconclusive: 4.47 µM [falling, full curve] | 

2 records picked at random from those above, as already listed:
SMILES | Potency | activity change, negative = inhibition
CCN(CC)C(=O)OCc1c(-c2ccccc2)ncc2ccccc12 |  | inconclusive: 7.23%
CC1CN(c2ccc([N+](=O)[O-])c(NCCOc3ccccc3)c2)CCN1 (configuration not stated) | inconclusive: 35.5 µM [falling, single point] | 

Further entries

SMILES | Potency | activity change, negative = inhibition
Cc1ccccc1NC(=O)c1ccc(NC(=O)C2CC(=O)OC23CCCCC3)cc1 (configuration not stated) |  | inconclusive: -16.5%
COc1ccc(C(=O)NCCNc2nc3c(C)cccc3cc2C#N)cc1OC |  | inconclusive: 1.16%
CCOC(=O)C1=C(N)n2c(s/c(=C/c3ccco3)c2=O)=C(C(=O)OC)C1c1ccco1 (configuration not stated) |  | inactive
CCOC(=O)c1cnc2ccc(C)cc2c1Nc1ccc(N2CCOCC2)cc1 | inconclusive: 8.2 µM [falling, partial curve, poor fit] | 
O=C(COC(=O)C1CCC1)NCc1ccc(Cl)cc1Cl |  | inactive
O=C(OCC(=O)N1CCOCC1)c1ccc2ccccc2c1O | inconclusive: 5.8 µM [falling, partial curve] | 
CCOC(=O)C1CCN(C(=O)c2cc3c(=O)n4cccc(C)c4nc3s2)CC1 | inconclusive: 3.16 µM [falling, partial curve] | 
COC(=O)c1cc2ccc(OC)cc2c2cc(OC)c(OC)cc12 |  | inactive
COc1ccc(NC(=O)CN(C)C(C)C(=O)N2CCCCC2)cc1 (configuration not stated) |  | inconclusive: 19.8%
CCN(CC)CCCNC(=O)C1c2cc(OC)c(OC)cc2C(=O)N(C)C1c1cccnc1 (configuration not stated) | inconclusive: 35.5 µM [falling, single point] | 
CCC(C)(C)C1CCc2c(sc(NC(=O)c3ccccc3C(=O)O)c2C#N)C1 (configuration not stated) | inconclusive: 11.2 µM [rising, single point] | 
CCCOc1cccc(-c2nnc(NC(=O)c3ccco3)s2)c1 | inconclusive: 10 µM [falling, partial curve] | 
O=C1/C(=C/c2ccco2)SC(=S)N1C1CCS(=O)(=O)C1 (configuration not stated) |  | inconclusive: -9.94%
Cc1cccc(-c2nn(-c3ccccc3)cc2C(=O)NCC(c2cccs2)N2CCOCC2)c1 (configuration not stated) |  | inconclusive: 5.82%
CCOC(=O)[C@H]1[C@H]2COc3ccc(Cl)cc3[C@@H]2N2C(=O)c3cc(OC)ccc3NC(=O)[C@@]12C |  | inconclusive: 14.1%
CCn1c(C)cc(C=C2C(=O)c3ccccc3C2=O)c1C |  | inconclusive: -7.29%
O=C(CCCC(=O)OCC(Cl)=C(Cl)Cl)Nc1cccc(F)c1 |  | inconclusive: -4.95%
Cn1c(=O)c(C(=O)NNC(=O)c2cccc(Cl)c2)c(O)c2ccccc21 | inconclusive: 3.16 µM [falling, full curve] | 
Cn1c(=O)cc(OCC(=O)Nc2ccccn2)c2ccccc21 | inconclusive: 1.16 µM [rising, full curve, poor fit] | 
O=C(NCc1ccccc1C(F)(F)F)C1CC(c2ccccc2[N+](=O)[O-])=NO1 (configuration not stated) |  | inconclusive: -17.3%
CC(C)(C)c1ccc(C(=O)NCc2ccc(Cl)cc2)cc1 |  | inactive
O/N=C/c1ccc(OCc2ccccc2)c(Cl)c1 |  | inconclusive: -6.1%
C[C@]12CC[C@@H]3c4ccc(O)cc4CC[C@H]3[C@@H]1CC[C@@H]2OC(=O)CCC(=O)O |  | inconclusive: -12.2%
